The test system of the experiment is HCV-Luc. Briefly: HCV-Luc infection assay. Type of experiment: cell-based. Conditions: Hepatitis C virus.

As a reminder, the EC50 is the concentration at which the effect is half-maximal.

`Clc1ccc(C(c2ccc(Cl)cc2)N2CCNCC2)cc1` [Cl, Cl, H, 1-(bis(4-Chlorophenyl)methyl)piperazine] came in with an EC50 of 28 ± 5 nM.

(Values after patent publication US20170001988A1, “PIPERIDINE AND PIPERAZINE DERIVATIVES AND THEIR USE IN TREATING VIRAL INFECTIONS AND CANCER” (THE UNITED STATES OF AMERICA, AS REPRESENTED BY THE …, priority 2013, published 2017).)
